This note sets out measurements from PubChem BioAssay AID2685 (National Center for Advancing Translational Sciences (NCATS), 2010).

The other results are listed elsewhere or left out. Shown are side measurements of this screen, not its main read-out; they come without a call. The list favours compounds with an active or inconclusive main result. Words in brackets tell the shape of the fitted curve; partial curves, single points and poor fits give uncertain potencies.

A short description of the assay: qHTS Assay for Lipid Storage Modulators in Drosophila S3 Cells.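 As to cell number change: cells counted by Cell Tracker Red CMTPX staining in the red channel.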 Conditions: BODIPY lipid droplet fluorescence, 18-24 h; for cell number change: measured here: cell count max response, cells fed with added oleic acid. A digest of the protocol:
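Drosophila S3 cells loaded with oleic acid (400 uM, as added) and compounds at several concentrations; lipid droplets imaged by 488-nm laser-scanning cytometry, 500–530 nm intensity and object ratio to cell channel. Percent activity normalized to 20 uM Triacsin C.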

Where [1] appears, read: measured here: lipid fluorescence (Fed channel) AC50, cells fed with added oleic acid.
Setting [2] is: measured here: cell number channel AC50, cells fed with added oleic acid.

As for `NC(=S)NN=C(c1ccccc1)c1ccccc1`, the cell number change stood at 22.5%. For the same molecule, the AC50 (as a rule, the midpoint of the concentration-response curve, whichever way the signal moves) under setting [1] is 25.9 µM [rising, single point].
Consider `Cc1c(CN2CCC(CO)(CC3CCCCO3)CC2)cnn1C` (centres undefined), for which the cell number change was -14.5%.
`CCCc1nnc(NC(=O)Nc2ccc(OC)cc2)s1`: the cell number change is -43.1%. The AC50 under setting [2] is 29.1 µM [falling, single point]. Under setting [1], the AC50 is 32.6 µM [falling, partial curve, poor fit].
Regarding `COc1c(Cl)ccc(Cl)c1C(=O)NC(=S)N1CCOCC1`, the cell number change was -16.9%. Further, the AC50 under setting [2] is 0.0731 µM [falling, full curve, poor fit]. Also, the AC50 under setting [1] was 0.082 µM [falling, single point].
Take `COc1ccc(CNC(=O)CN(Cc2ccc(OC)cc2)C(=O)CCC(=O)Nc2nccs2)cc1`: the cell number change is -12.8%. Moreover, the AC50 under setting [2] is 0.146 µM [falling, full curve, poor fit].
In the case of `O=C(CNS(=O)(=O)c1cccc(Cl)c1)Nc1ccc(-c2nc3ccccc3s2)cc1`, the cell number change is -10.3%. Further, the AC50 under setting [1] was 0.92 µM [falling, full curve, poor fit].
As to `O=C(O)CCCCCCNC(=O)c1cncc(O)c1`, the cell number change came to 11.3%.
For the molecule `CC(C)C(c1nnnn1C1CCCC1)N1CCOCC1` (centres undefined), the cell number change amounted to 9.11%. Also, the AC50 under setting [2] is 4.61 µM [rising, single point].
In the case of `O=C(Cc1cccs1)Nc1nnc(SCc2ccc(C(F)(F)F)cc2)s1`, the cell number change was -34.4%. Also, the AC50 under setting [2] was 18.4 µM [falling, single point]. For the same molecule, the concentration at half-maximal activity (AC50) under setting [1] was 16.4 µM [falling, single point].
In the case of `CCOc1cnc(-c2c(-c3c(F)cccc3Cl)noc2C)o1`, the cell number change was -15.4%.
On to `Fc1ccc(CN2CC[C@H]3C=CCc4cccc(c43)C2)cc1`, for which the cell number change is -53.5%. Also, the AC50 under setting [2] is 20.6 µM [falling, partial curve].
On to `O=C(CSc1n[nH]c(-c2ccccc2)n1)Nc1ccccc1O`, for which the cell number change was 7.33%.
`CC1CCCN(CCC(=O)Nc2ccc(F)c(F)c2)C1` (centres undefined): the cell number change amounted to 9.52%. Besides, the AC50 under setting [1] was 1.64 µM [rising, partial curve].
As for `COc1ccc(OCCNC(=O)c2ccccc2OCC(=O)Nc2ccc(NC(C)=O)cc2)cc1`, the cell number change was -2.49%. For the same molecule, under setting [1], the AC50 was 4.61 µM [rising, single point].
Consider `CC(C)NC(=O)c1c(O)c2ccccc2[nH]c1=O`, for which the cell number change turned out to be 3.77%. The AC50 under setting [1] is 10.3 µM [rising, partial curve].
`Cn1c(=O)c2cc(S(=O)(=O)NC(Cc3ccccc3)C(=O)NCC3CCCO3)ccc2n(C)c1=O` (centres undefined): the cell number change was 23%. Besides, the AC50 under setting [1] was 29.1 µM [rising, single point].
For `CCOC(=O)c1c(CC(C)C)csc1NC(=O)COC(=O)c1cc(OC)c(OC)cc1[N+](=O)[O-]`, the cell number change was determined as 4.45%. Also, under setting [1], the AC50 is 4.11 µM [falling, single point].
In the case of `Cc1ccc(-n2c(SCC(=O)Nc3ccc4c(c3)OCCO4)nnc2-c2ccco2)cc1`, the cell number change is -0.638%. For the same molecule, the AC50 under setting [1] is 0.651 µM [rising, full curve].
On to `NS(=O)(=O)c1cccnc1Nc1c(Cl)cccc1Cl`, for which the cell number change is -9.59%.
Take `CCCC1(c2ccccc2)NC(=O)N(CC(=O)Nc2cc(C)on2)C1=O` (centres undefined): the cell number change turned out to be 54.1%. In addition, the concentration at half-maximal activity (AC50) under setting [1] was 6.51 µM [falling, single point].
As to `COc1cccc(C(=O)NCCSc2ccc(F)cc2)c1`, the cell number change was -32.6%. Also, the AC50 under setting [1] was 29.1 µM [falling, single point].
In the case of `Cc1ccc(S(=O)(=O)NNC(=O)Cc2cccn2C)cc1`, the AC50 was 5.8 µM [rising, partial curve, poor fit] under setting [2] and 4.11 µM [rising, partial curve, poor fit] under setting [1].
Consider `Cc1cc2oc(=O)c3c(c2cc1OCc1nn[nH]n1)CCCC3`, for which the cell number change was -0.967%.
The same measure, in the same setting: for `Cc1c(C2OC(=O)C3(CCCCC3)C(=O)C2(C)C)c(=O)n(-c2ccccc2)n1C` (centres undefined) the value was -19.6%; for `CC1(C)OC(c2ccccc2)=C/C(=C\C=N\NC(=O)c2ccncc2)O1`, 29.4%.
As for `O=C(COc1ccc(Cl)cc1Cl)N(Cc1ccco1)C1CCS(=O)(=O)C1` (centres undefined), the cell number change turned out to be 0.404%. Besides, the AC50 under setting [1] is 0.13 µM [falling, full curve, poor fit].
Take `COc1ccccc1-c1cc(C(=O)N/N=C/c2ccoc2)c2ccccc2n1`: the AC50 under setting [1] was 0.0231 µM [rising, full curve, poor fit].
On to `Cc1cccc(CC(=O)N2CCOCC2)c1`, for which the cell number change is 3.44%. Also, the AC50 under setting [1] was 3.66 µM [rising, full curve].
Turning to `CCOc1ccccc1NC(=O)CCn1ccnc1`, the cell number change worked out at 38.3%. Besides, the AC50 under setting [2] was 16.4 µM [rising, single point]. In addition, the concentration at half-maximal activity (AC50) under setting [1] is 29.1 µM [rising, single point].
For the molecule `CCCCNC(=O)CCCn1c(=O)c2ccccc2n(CC(=O)NCCC2=CCCCC2)c1=O`, the cell number change was -0.802%. Moreover, under setting [1], the AC50 was 16.4 µM [rising, single point].
Take `CN(Cc1ccon1)C(=O)C1CCN(C2CCN(CCCc3ccccc3)CC2)CC1`: the cell number change is 0.867%.
Consider `O=C1CSC(=S)N1Cc1cccnc1`, for which the cell number change was 13.3%. Moreover, under setting [1], the AC50 was 16.4 µM [rising, partial curve].
In the case of `CCCCn1c(SCC(=O)N2CCN(c3ccccc3)CC2)nc2ccsc2c1=O`, the cell number change is -26.9%. The AC50 under setting [2] is 0.731 µM [falling, full curve, poor fit].
Take `CCOC(=O)c1c(-c2ccccc2)oc2ccc(OCC)cc12`: the cell number change is 20.2%. The AC50 under setting [1] is 8.2 µM [rising, partial curve].
As for `CCOC(=O)C1=C(C)N=C2SC(C)C(=O)N2C1c1cccc(F)c1` (centres undefined), the cell number change is -9.06%.
In the case of `C=CCn1cc(CN2CCC(C(=O)Nc3cccc(-c4cccc(F)c4)c3)CC2)c(C)n1`, the cell number change is 27.9%. In addition, the AC50 under setting [2] is 1.84 µM [rising, full curve, poor fit]. The AC50 under setting [1] was 6.51 µM [rising, partial curve, poor fit].
As to `Cc1cccc(OCCCn2c(CCNC(=O)C(C)C)nc3ccccc32)c1`, the cell number change was -30.9%. The AC50 under setting [2] is 29.1 µM [falling, single point]. For the same molecule, the AC50 under setting [1] is 29.1 µM [falling, single point].
Turning to `Cc1[nH]c2ccccc2c1C(=O)COC(=O)c1nccnc1N`, the cell number change amounted to 5.39%.
Take `COc1ccccc1N1CCN(CCCn2c(=S)[nH]c3ccccc3c2=O)CC1`: the cell number change is 18.1%. Moreover, the AC50 under setting [2] is 0.0146 µM [rising, full curve, poor fit].
For `COc1cc(C2C(C#N)=C(N)Oc3c2c(-c2ccccc2)nn3-c2ccccc2)cc(OC)c1OC` (centres undefined), the AC50 is, setting by setting: under setting [2], 6.51 µM [rising, partial curve, poor fit]; under setting [1], 7.31 µM [falling, partial curve, poor fit].
